The list shows a part of the results.
Columns and labels:
Test in all cases: log2 fold change, soluble protein after heating vs DMSO (PISA); higher = thermal stabilisation; K562 lysate, 10 uM; active = over 0.2 and 3.5 SD of the protein, either way, in both replicates (recomputed)
[1] = compound: C#Cc1cccc(Nc2ncnc3cc(OCCOC)c(OCCOC)cc23)c1 [erlotinib]
Method in brief: (§1)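 Dounce homogenisation of K562 pellets in PBS pH 7.4 with 1 mM MgCl2 produced a crude extract, used at 1 mg/mL protein. Exposure to 10 μM compound lasted 30 min, and aliquots were then heated for 3 min across 48°C-58°C, pooled and brought to 0.5% NP-40 at 4°C. The supernatant after 21,000xg for 90 min was quantified by TMTpro 16plex LC-MS/MS with channel sums equalised. Duplicate values are given as log-two fold change in thermal stability relative to solvent controls.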

Amino acid sequences for entries named in this document (tags omitted). A change or cut given only in a name is not applied to a line headed by its entry.
UniProt Q9H8Y5: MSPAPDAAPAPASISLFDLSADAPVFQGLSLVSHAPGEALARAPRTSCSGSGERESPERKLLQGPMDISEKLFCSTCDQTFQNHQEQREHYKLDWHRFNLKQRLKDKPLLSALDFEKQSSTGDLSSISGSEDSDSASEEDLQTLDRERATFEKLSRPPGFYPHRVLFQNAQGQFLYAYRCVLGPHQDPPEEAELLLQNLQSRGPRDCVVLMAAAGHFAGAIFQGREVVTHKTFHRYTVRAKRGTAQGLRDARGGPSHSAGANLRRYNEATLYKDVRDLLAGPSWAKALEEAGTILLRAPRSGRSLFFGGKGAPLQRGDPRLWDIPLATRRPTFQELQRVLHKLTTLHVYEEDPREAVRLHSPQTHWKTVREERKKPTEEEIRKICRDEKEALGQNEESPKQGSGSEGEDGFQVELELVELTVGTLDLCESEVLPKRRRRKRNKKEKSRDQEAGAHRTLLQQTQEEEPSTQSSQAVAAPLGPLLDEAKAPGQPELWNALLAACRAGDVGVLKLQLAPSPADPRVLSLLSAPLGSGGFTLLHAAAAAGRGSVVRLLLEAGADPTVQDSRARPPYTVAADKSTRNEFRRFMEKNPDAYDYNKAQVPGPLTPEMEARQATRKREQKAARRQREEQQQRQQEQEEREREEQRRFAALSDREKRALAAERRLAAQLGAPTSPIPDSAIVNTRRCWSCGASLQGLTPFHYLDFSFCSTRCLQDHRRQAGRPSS
UniProt Q96Q42: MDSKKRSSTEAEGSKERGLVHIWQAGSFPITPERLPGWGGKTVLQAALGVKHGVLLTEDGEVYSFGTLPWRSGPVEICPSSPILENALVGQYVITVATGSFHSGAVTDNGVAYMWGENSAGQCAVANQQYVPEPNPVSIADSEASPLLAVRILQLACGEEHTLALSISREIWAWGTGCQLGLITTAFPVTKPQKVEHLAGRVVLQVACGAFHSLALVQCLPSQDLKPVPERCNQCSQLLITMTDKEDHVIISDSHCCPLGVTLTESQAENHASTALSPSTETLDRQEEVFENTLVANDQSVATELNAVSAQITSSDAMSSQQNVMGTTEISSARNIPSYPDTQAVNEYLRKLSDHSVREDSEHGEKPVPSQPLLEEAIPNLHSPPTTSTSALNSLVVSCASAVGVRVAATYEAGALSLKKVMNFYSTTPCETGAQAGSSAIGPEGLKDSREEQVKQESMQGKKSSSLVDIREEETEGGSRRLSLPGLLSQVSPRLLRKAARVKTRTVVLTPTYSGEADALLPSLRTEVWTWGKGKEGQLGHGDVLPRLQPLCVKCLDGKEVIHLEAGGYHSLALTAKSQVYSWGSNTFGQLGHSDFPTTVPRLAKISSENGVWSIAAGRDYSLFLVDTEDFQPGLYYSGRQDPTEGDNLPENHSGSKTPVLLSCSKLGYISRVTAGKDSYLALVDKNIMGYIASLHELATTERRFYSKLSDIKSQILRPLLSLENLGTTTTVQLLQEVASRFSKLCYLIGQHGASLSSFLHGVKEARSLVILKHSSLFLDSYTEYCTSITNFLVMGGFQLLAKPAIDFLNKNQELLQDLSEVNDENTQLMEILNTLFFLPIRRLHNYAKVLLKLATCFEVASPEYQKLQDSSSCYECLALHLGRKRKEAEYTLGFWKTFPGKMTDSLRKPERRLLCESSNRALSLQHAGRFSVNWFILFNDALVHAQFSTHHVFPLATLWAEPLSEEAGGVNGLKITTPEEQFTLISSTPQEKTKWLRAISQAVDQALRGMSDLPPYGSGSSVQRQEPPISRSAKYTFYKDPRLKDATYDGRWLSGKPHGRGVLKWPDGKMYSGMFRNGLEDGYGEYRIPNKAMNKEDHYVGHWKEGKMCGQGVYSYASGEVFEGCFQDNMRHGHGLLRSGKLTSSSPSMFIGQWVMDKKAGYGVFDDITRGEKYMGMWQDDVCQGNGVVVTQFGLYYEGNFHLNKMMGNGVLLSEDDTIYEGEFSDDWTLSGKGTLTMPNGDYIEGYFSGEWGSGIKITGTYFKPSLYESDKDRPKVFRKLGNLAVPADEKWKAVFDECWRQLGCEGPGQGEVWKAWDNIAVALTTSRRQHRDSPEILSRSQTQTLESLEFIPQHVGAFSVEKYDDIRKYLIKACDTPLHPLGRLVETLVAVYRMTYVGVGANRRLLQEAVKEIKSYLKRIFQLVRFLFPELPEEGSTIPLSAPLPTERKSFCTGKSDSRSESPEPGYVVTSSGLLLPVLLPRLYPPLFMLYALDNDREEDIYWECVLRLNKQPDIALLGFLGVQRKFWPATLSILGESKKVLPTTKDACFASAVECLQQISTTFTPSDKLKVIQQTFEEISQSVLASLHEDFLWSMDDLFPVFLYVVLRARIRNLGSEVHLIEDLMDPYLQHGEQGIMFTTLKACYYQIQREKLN
UniProt Q96Q83: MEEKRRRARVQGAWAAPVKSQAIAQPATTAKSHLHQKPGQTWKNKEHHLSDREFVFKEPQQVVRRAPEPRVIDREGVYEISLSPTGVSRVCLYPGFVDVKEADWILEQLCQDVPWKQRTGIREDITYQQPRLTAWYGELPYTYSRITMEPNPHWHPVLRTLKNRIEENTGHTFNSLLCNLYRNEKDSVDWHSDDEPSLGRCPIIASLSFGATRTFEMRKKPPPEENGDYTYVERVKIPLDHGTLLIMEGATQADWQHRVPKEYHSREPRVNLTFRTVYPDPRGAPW
UniProt Q9UM13, whole entry, looked up: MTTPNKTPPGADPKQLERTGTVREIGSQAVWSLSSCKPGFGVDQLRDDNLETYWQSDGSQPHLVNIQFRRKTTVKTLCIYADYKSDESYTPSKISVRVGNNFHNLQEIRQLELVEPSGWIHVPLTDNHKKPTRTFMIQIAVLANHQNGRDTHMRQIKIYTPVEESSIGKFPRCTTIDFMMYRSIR
UniProt Q96CW1: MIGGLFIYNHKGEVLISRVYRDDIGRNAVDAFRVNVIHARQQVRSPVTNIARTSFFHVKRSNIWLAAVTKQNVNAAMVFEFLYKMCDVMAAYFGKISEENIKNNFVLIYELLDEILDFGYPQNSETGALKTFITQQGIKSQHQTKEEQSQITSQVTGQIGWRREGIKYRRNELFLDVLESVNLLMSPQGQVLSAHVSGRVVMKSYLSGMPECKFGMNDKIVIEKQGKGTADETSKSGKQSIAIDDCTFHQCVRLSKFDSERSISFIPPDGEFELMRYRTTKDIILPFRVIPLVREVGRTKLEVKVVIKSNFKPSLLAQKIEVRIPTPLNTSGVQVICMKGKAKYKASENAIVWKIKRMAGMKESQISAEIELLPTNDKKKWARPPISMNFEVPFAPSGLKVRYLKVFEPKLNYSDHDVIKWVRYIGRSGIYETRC
UniProt P15144: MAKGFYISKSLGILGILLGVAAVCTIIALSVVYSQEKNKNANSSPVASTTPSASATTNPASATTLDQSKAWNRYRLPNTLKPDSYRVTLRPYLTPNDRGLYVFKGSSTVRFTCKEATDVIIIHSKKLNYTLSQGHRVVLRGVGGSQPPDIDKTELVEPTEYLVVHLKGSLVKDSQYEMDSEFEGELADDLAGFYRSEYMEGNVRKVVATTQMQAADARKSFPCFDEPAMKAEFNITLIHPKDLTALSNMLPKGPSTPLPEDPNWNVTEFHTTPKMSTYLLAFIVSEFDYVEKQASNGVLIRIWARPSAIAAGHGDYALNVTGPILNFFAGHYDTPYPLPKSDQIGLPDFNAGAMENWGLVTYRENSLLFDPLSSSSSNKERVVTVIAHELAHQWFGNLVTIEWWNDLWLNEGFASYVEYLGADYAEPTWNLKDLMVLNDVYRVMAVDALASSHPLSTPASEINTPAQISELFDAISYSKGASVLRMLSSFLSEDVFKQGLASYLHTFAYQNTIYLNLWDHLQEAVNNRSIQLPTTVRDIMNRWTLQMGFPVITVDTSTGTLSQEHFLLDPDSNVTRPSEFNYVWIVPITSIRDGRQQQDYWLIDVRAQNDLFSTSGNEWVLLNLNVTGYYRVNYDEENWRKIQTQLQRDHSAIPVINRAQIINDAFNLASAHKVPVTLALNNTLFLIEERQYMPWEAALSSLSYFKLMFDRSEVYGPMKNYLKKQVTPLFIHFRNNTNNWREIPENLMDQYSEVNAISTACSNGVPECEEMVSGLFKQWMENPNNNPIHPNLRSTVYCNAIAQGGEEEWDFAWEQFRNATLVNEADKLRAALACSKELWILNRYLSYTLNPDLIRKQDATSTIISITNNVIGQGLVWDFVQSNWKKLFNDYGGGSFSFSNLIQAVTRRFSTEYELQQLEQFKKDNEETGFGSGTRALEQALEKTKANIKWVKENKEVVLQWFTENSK
UniProt O14617: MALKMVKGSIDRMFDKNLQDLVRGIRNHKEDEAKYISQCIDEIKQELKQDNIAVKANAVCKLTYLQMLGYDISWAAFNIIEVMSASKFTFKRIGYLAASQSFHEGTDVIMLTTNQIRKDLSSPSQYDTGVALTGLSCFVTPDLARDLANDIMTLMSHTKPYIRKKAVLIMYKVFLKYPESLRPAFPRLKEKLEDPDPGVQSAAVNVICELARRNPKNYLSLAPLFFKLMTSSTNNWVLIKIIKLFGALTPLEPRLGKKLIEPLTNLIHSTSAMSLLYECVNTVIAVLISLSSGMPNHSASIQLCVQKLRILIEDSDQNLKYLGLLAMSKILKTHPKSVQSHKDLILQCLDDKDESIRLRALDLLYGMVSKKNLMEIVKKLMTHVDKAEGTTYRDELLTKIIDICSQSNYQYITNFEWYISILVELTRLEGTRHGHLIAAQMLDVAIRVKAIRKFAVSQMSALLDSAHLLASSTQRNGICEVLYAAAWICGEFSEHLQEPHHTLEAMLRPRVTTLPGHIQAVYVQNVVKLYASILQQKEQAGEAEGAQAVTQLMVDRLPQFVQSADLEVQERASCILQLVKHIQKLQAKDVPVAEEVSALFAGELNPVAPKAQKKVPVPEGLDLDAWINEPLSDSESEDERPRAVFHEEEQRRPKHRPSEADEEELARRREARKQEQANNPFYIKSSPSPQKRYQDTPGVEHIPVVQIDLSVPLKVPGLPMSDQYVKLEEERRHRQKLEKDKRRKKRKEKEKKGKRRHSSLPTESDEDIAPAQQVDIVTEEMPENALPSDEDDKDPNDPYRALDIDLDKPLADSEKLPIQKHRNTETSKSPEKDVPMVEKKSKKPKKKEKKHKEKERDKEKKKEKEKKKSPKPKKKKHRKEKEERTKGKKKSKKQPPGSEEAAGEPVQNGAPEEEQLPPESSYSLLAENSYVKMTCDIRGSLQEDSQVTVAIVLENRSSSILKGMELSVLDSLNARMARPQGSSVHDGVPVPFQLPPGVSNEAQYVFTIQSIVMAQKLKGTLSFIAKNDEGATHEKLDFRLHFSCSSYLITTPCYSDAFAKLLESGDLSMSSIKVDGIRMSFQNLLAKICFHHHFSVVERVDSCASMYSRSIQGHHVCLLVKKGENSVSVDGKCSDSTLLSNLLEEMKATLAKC
UniProt Q10567: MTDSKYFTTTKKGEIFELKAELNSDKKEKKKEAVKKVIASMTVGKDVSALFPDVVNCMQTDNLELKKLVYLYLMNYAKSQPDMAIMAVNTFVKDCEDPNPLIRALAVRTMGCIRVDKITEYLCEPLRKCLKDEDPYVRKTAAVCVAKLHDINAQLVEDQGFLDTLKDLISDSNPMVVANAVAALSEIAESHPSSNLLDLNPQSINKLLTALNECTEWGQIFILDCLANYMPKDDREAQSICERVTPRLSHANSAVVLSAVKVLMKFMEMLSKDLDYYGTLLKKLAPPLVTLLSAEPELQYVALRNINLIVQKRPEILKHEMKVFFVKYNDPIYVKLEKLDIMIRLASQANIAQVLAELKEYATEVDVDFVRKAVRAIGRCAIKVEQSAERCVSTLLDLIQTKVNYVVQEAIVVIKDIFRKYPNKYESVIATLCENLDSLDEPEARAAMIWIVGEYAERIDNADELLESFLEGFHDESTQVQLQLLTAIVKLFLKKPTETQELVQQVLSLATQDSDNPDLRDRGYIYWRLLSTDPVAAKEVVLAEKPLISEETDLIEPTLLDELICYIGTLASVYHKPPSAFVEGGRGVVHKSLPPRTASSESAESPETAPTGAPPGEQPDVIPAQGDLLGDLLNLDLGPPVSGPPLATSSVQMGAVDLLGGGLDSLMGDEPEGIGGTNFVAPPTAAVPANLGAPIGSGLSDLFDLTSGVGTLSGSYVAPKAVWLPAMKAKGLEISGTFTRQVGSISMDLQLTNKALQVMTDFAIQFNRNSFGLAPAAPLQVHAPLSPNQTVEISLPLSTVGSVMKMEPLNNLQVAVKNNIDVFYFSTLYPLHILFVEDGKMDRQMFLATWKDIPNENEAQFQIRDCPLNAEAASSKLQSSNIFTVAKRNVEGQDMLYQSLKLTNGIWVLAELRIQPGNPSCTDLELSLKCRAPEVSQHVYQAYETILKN
UniProt P53680: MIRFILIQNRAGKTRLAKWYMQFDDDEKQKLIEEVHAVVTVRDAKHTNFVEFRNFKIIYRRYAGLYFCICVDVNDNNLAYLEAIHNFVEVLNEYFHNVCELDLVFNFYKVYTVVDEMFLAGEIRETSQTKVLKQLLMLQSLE

[2] = compound: C/C(=N\NC(=O)C1=CC(=CC=C1)S(=O)(=O)N2CCOCC2)/C3=C(C=CC(=C3)Cl)O
Method in brief: as §1

[3] = compound: C1=CC(=CC=C1C2=NC3=C(N2)C=C(C=C3)C(=O)N)OC4=CC=C(C=C4)Cl
Method in brief: as §1

[4] = compound: C1=CC2=C(C=CC(=C2)/C=C\3/C(=O)NC(=NCC4=CC=CS4)S3)N=C1
Method in brief: as §1

[5] = compound: C1=CC2=NC=CN=C2C=C1/C=C/3\C(=O)NC(=O)S3
Method in brief: as §1

[6] = compound: C1=CC=C(C=C1)C2=NC(=C(N2)C3=CC=NC=C3)C4=CC(=C(C=C4)Cl)O
Method in brief: as §1

[7] = compound: C1=CC=C2C(=C1)C3=NNC4=CC=CC(=C43)C2=O
Method in brief: as §1

[8] = compound: C1CCN(C1)C(=O)NC2=CC=CC(=C2)NC3=NC=C(C(=N3)NCCC4=CN=CN4)Br
Method in brief: as §1

[9] = compound: C1CN(CCC1(CC2=CC=C(C=C2)Cl)N)C3=NC=NC4=C3C=CN4
Method in brief: as §1

[10] = compound: C1COCCN1CCN2C3=CC=CC=C3N=C2NC(=O)C4=CC(=CC=C4)[N+](=O)[O-] [IRAK-1-4 Inhibitor I]
Method in brief: as §1

Measured: log2 fold change

ALKBH4 (UniProt Q9NXW9)
inactive: [1] 0.014 | [2] -0.073 | [3] 0.026 | [4] -0.011 | [5] 0.017 | [6] -0.052 | [7] -0.069 | [8] 0 | [9] 0.019 | [10] 0.003

ANTXR2 isoform 4 (UniProt P58335)
inactive: [1] -0.032 | [2] -0.032 | [3] 0.031 | [4] 0.01 | [5] 0.013 | [6] -0.036 | [7] 0.013 | [8] -0.007 | [9] 0.011 | [10] 0.012

AMPD2 (UniProt Q01433)
inactive: [1] -0.036 | [2] -0.006 | [3] 0.058 | [4] 0.009 | [5] -0.024 | [6] -0.016 | [7] 0.006 | [8] -0.026 | [9] 0.005 | [10] 0.004

ANKZF1 (UniProt Q9H8Y5)
inactive: [1] 0.016 | [2] -0.041 | [3] -0.013 | [4] 0.046 | [5] -0.037 | [6] 0.001 | [7] 0.017 | [8] -0.003 | [9] 0.034 | [10] -0.022

ALS2 (UniProt Q96Q42)
inactive: [1] 0.013 | [2] 0.063 | [3] -0.104 | [4] -0.021 | [5] 0.078 | [6] -0.033 | [7] 0.072 | [8] 0.024 | [9] 0.052 | [10] 0.009

2 records picked at random from the list so far:
ANKZF1 (UniProt Q9H8Y5)
inactive: [1] 0.016 | [2] -0.041 | [3] -0.013 | [4] 0.046 | [5] -0.037 | [6] 0.001 | [7] 0.017 | [8] -0.003 | [9] 0.034 | [10] -0.022

ALS2 (UniProt Q96Q42)
inactive: [1] 0.013 | [2] 0.063 | [3] -0.104 | [4] -0.021 | [5] 0.078 | [6] -0.033 | [7] 0.072 | [8] 0.024 | [9] 0.052 | [10] 0.009

Following part

ALKBH3 (UniProt Q96Q83)
inactive: [1] -0.06 | [2] -0.121 | [3] 0.021 | [4] -0.042 | [5] -0.02 | [6] 0.009 | [7] -0.009 | [8] 0.141 | [9] -0.034 | [10] -0.006

ANAPC10 (UniProt Q9UM13)
inactive: [1] -0.034 | [2] -0.037 | [3] 0.042 | [4] 0.031 | [5] -0.025 | [6] 0.03 | [7] -0.016 | [8] -0.007 | [9] -0.007 | [10] -0.013

ANP32E (UniProt Q9BTT0)
inactive: [1] 0.006 | [2] -0.006 | [3] 0.016 | [4] -0.021 | [5] 0.012 | [6] -0.004 | [7] -0.065 | [8] -0.025 | [9] 0.011 | [10] 0.023

AP4B1 (UniProt Q9Y6B7)
inactive: [1] 0.021 | [2] -0.038 | [3] 0.016 | [4] 0.096 | [5] 0.038 | [6] 0.019 | [7] -0.022 | [8] -0.018 | [9] 0.188 | [10] 0.013

ANGPTL4 (UniProt M0R3A2)
inactive: [1] 0.283 | [2] -0.157 | [3] -0.109 | [4] 0.108 | [5] 0.207 | [6] 0.262 | [7] -0.152 | [8] 0.091 | [9] -0.067 | [10] 0.122

AP2M1 (UniProt Q96CW1)
inactive: [1] 0.001 | [2] -0.028 | [3] 0.004 | [4] 0.029 | [5] -0.01 | [6] -0.01 | [7] -0.046 | [8] -0.046 | [9] 0.007 | [10] 0.025

ANPEP (UniProt P15144)
inactive: [1] -0.037 | [2] -0.078 | [3] -0.056 | [4] -0.152 | [5] -0.086 | [6] 0 | [7] -0.001 | [8] 0.08 | [9] -0.026 | [10] 0.031

AP3D1 isoform 5 (UniProt O14617)
inactive: [1] -0.013 | [2] -0.004 | [3] -0.006 | [4] 0.011 | [5] 0.001 | [6] -0.007 | [7] -0.015 | [8] -0.015 | [9] -0.001 | [10] -0.003

ANP32B (UniProt Q92688)
inactive: [1] -0.03 | [2] 0.009 | [3] 0.01 | [4] -0.023 | [5] 0.014 | [6] -0.024 | [7] 0.031 | [8] 0.001 | [9] -0.016 | [10] -0.007

AP4M1 (UniProt O00189)
inactive: [1] -0.03 | [2] 0.066 | [3] -0.032 | [4] -0.013 | [5] -0.008 | [6] -0.064 | [7] -0.082 | [8] 0.038 | [9] -0.003 | [10] 0.067

AP2B1 isoform 2 (UniProt P63010)
inactive: [1] 0.005 | [2] 0.004 | [3] -0.001 | [4] -0.001 | [5] -0.029 | [6] 0.001 | [7] -0.06 | [8] -0.026 | [9] 0.029 | [10] 0.011

ALG13 (UniProt Q9NP73)
inactive: [1] 0.022 | [2] -0.014 | [3] 0.049 | [4] -0.008 | [5] -0.048 | [6] 0.047 | [7] -0.032 | [8] -0.01 | [9] 0.083 | [10] -0.02

ANKRD13D isoform 3 (UniProt Q6ZTN6)
inactive: [1] -0.045 | [2] 0.284 | [3] -0.043 | [4] 0.325 | [5] 0.124 | [6] 0.123 | [7] -0.158 | [8] -0.035 | [9] 0.144 | [10] -0.098

ALKBH8 isoform 4 (UniProt Q96BT7)
inactive: [1] -0.047 | [2] -0.099 | [3] 0.017 | [4] 0.054 | [5] -0.056 | [6] 0.012 | [7] -0.025 | [8] 0.144 | [9] -0.019 | [10] 0.04

ANKHD1 isoform 6 (UniProt Q8IWZ3)
inactive: [1] -0.006 | [2] 0.001 | [3] -0.007 | [4] 0.025 | [5] -0.004 | [6] -0.002 | [7] -0.004 | [8] -0.039 | [9] 0.028 | [10] -0.002

AP2A2 isoform 2 (UniProt O94973)
inactive: [1] -0.055 | [2] 0.018 | [3] 0.026 | [4] 0.032 | [5] -0.118 | [6] -0.018 | [7] -0.025 | [8] -0.029 | [9] 0.031 | [10] 0.005

ANKRD27 (UniProt Q96NW4)
inactive: [1] 0.087 | [2] -0.025 | [3] 0.07 | [4] 0.04 | [5] -0.033 | [6] 0.02 | [7] -0.094 | [8] -0.036 | [9] 0 | [10] 0.014

ALDOC (UniProt P09972)
inactive: [1] -0.012 | [2] 0.09 | [3] 0.005 | [4] 0.011 | [5] -0.009 | [6] 0.012 | [7] 0.008 | [8] -0.014 | [9] 0.018 | [10] 0.008

ANAPC7 (UniProt Q9UJX3)
inactive: [1] -0.001 | [2] 0.006 | [3] 0.002 | [4] 0.024 | [5] -0.016 | [6] 0.003 | [7] 0.027 | [8] 0 | [9] -0.017 | [10] 0.005

AP1B1 (UniProt Q10567)
inactive: [1] -0.002 | [2] 0 | [3] -0.011 | [4] 0.017 | [5] -0.003 | [6] 0.016 | [7] 0.027 | [8] 0.003 | [9] 0.003 | [10] 0.018

ANK3 (UniProt Q12955)
inactive: [1] -0.002 | [2] 0.02 | [3] -0.007 | [4] 0.034 | [5] 0.006 | [6] -0.055 | [7] -0.011 | [8] -0.002 | [9] 0.011 | [10] -0.002

AP2S1 (UniProt P53680)
inactive: [1] -0.032 | [2] -0.037 | [3] -0.026 | [4] 0.01 | [5] 0.003 | [6] 0.014 | [7] -0.051 | [8] -0.043 | [9] -0.052 | [10] -0.01
